In PubChem BioAssay AID2685 (National Center for Advancing Translational Sciences (NCATS), 2010):
The list shows a part of the results. These are further read-outs of the screen, such as a control signal, another cell line or another target. No call is given for them. The list favours compounds with an active or inconclusive main result. Potencies come from curve fits of mixed quality, noted in brackets.

Test: qHTS Assay for Lipid Storage Modulators in Drosophila S3 Cells;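 on cell number change: cells counted by Cell Tracker Red CMTPX staining in the red channel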
Conditions: BODIPY lipid droplet fluorescence, 18-24 h; for cell number change: measured here: cell count max response, cells fed with added oleic acid
Method in brief: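 Drosophila S3 cells got compounds at several concentrations plus oleic acid (400 uM solution). Laser-scanning cytometry with 488 nm excitation read lipid droplets at 500-530 nm and cells at 575-640 nm. Percent activity was relative to 20 uM Triacsin C.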

[1] = measured here: lipid fluorescence (Fed channel) AC50, cells fed with added oleic acid
[2] = measured here: cell number channel AC50, cells fed with added oleic acid

| Compound | cell number change | AC50 [1] | AC50 [2] |
| --- | --- | --- | --- |
| CC(C)(C)n1nnnc1C(c1ccc(Cl)cc1)N(Cc1cccnc1)Cc1ccco1 (centres undefined) | -25.4% | 29.1 µM [falling, single point] |  |
| CCCCC(=O)Nc1cccc(NC(=O)c2cccnc2Cl)c1 |  | 4.61 µM [falling, partial curve, poor fit] |  |
| Cc1ccc(N2CC(C(=O)OCC(=O)Nc3ccccc3F)CC2=O)cc1 (centres undefined) | -114% | 23.1 µM [falling, partial curve] | 20.6 µM [falling, partial curve] |
| COCCN(C(=O)COC(=O)Cc1cccc2ccccc12)c1c(N)n(Cc2ccccc2)c(=O)[nH]c1=O | 11.5% |  |  |
| CN(O)/C=C/C(=O)c1ccc(Br)cc1 | -19% | 0.116 µM [falling, full curve] |  |
| COc1ccc(Oc2cnn(-c3ccccc3)c(=O)c2Br)cc1 | 1.23% |  |  |
| CNc1nc(-c2ccccc2)cc(C)c1S(C)(=O)=O | -35.8% |  | 7.31 µM [falling, partial curve, poor fit] |
| O=C(CSc1nc2ccccc2c(=O)n1-c1ccc(F)cc1)Nc1ccc2c(c1)CCC2 | -30.9% | 29.1 µM [falling, single point] | 29.1 µM [falling, single point] |
| Cc1cccc(-c2nc3ccccc3c(=O)n2NC(=O)/C=C/c2ccc([N+](=O)[O-])cc2)c1 | 23.3% | 11.6 µM [rising, partial curve, poor fit] |  |
| O=[N+]([O-])c1nn(-c2ccc3c(c2)OCCO3)n(O)c1=NC1CCCCC1 | -11.8% | 2.91 µM [rising, single point] |  |
| CCCOc1ccc(/C(O)=C2\C(=O)C(=O)N(CCCOC)C23C(=O)N(C)c2ccccc23)cc1 (centres undefined) | 24.7% | 29.1 µM [falling, single point] | 0.82 µM [rising, full curve, poor fit] |
| CCn1cc(C(=O)NC(=S)Nc2cccc(O)c2)cn1 | 61.9% |  | 32.6 µM [rising, single point] |
| CCOc1ccc2nc(NS(=O)(=O)Cc3ccccc3)sc2c1 | -3.07% | 0.651 µM [rising, full curve] |  |
| CCc1nnc(NC(=O)c2ccc(S(=O)(=O)NC3CCCCC3)cc2)s1 | 93.5% |  |  |
| O=C(CCC1CCCCC1)Nc1ncn[nH]1 |  |  | 2.59 µM [rising, partial curve] |
| CCNC(=S)N1CCN(c2nc(-c3ccc(F)cc3)cs2)CC1 | -29.8% | 6.51 µM [rising, single point] |  |
| COc1cc(C2Nc3ccccc3C(=O)N2c2ccccc2OC)ccc1O (centres undefined) | 26.1% | 1.64 µM [rising, partial curve] |  |
| COc1ccc(N2CCN(C(=O)CN(Cc3ccc(Cl)cc3)S(C)(=O)=O)CC2)cc1 | 0.145% | 4.61 µM [rising, full curve, poor fit] |  |
| CCCCNc1nc2c(c(=O)n(C)c(=O)n2C)n1Cc1cccc(OC)c1 | -47% | 2.06 µM [falling, full curve] | 1.64 µM [falling, partial curve, poor fit] |
| Cn1nnnc1SCSc1nnnn1C | -41.3% | 25.9 µM [falling, single point] | 18.4 µM [falling, single point] |
| CS(=O)(=O)N1CCN(c2cccc(Cl)n2)CC1 | 10% |  | 0.231 µM [falling, full curve, poor fit] |
| CCOC(=O)c1[nH]c(C)c(CCC(=O)O)c1C | 18.7% | 5.8 µM [falling, single point] |  |

| Compound | cell number change | AC50 [1] | AC50 [2] |
| --- | --- | --- | --- |
| O=C1Cc2ccccc2C(c2c(Cl)cccc2Cl)N1 (centres undefined) | 13.8% |  |  |
| CCOc1ccc(NC(=O)CN(C)C(=O)c2cccnc2Sc2ccccc2Cl)cc1OCC |  |  | 0.103 µM [falling, full curve, poor fit] |
| CCCC1(CCC)C(=O)NC(=NCCc2ccc(OC)c(OC)c2)NC1=O | 6.09% |  |  |
| Nc1cc(N)nc(SCC(=O)N2CCN(S(=O)(=O)c3ccccc3)CC2)n1 | -6.46% | 0.82 µM [falling, full curve, poor fit] |  |
| O=C(CN1C(=O)c2ccccc2C1=O)Nc1cccc(S(=O)(=O)Nc2ccccc2Cl)c1 | -14.3% | 0.651 µM [falling, full curve, poor fit] |  |
| Cc1ccc(C2(C)CC(C)(C)N(C(=O)CSc3nnc(C)s3)c3ccccc32)cc1 (centres undefined) | 4.27% | 1.03 µM [falling, single point] |  |
| Cc1ccccc1Nc1nc(N)nc(CSc2nc3ccccc3s2)n1 | -33.3% |  | 0.731 µM [falling, partial curve, poor fit] |
| Cc1ccc(CNC(=O)c2ccc(CNS(=O)(=O)c3ccc4c(c3)C(C)(C)C(=O)N4C)cc2)o1 | 20.1% |  |  |
| COc1ccc(/C=C(\NC(=O)c2ccc(C)cc2)C(=O)NCCCn2ccnc2)cc1OC | 1.28% | 5.17 µM [falling, single point] |  |
| CCn1c(SCC(=O)NC2CC2)nnc1-c1ccccn1 | 1.47% |  |  |
| Cc1ccsc1C(=O)OCC(=O)NCC1CCCO1 (centres undefined) | -27.4% | 0.82 µM [rising, single point] | 0.366 µM [rising, full curve] |
| NC(=O)c1oc2ccccc2c1NC(=O)C1CC(=O)N(c2ccccc2)C1 (centres undefined) | 38.7% |  | 23.1 µM [rising, single point] |
| O=C(Nc1ccccc1)c1cccc(N2C(=O)C3C4C=CC(C5CC45)C3C2=O)c1 (centres undefined) |  | 29.1 µM [falling, single point] |  |
| CC(=O)Nc1ccc(-c2cn3cccnc3n2)cc1 |  |  | 3.66 µM [rising, single point] |
| Cc1noc(C)c1C(=O)OCC(=O)NCc1ccc(Cl)cc1 | -11.9% | 6.51 µM [falling, single point] | 0.517 µM [falling, full curve] |
| O=C(COc1coc(CN2CCN(c3ccccc3F)CC2)cc1=O)Nc1ccccc1 | 7.25% | 20.6 µM [rising, partial curve] |  |
| Cc1oc(-c2ccc(Cl)cc2)nc1CN1CCCC(C(=O)N2CCN(C(=O)c3ccco3)CC2)C1 (centres undefined) | -41.3% | 16.4 µM [falling, partial curve] | 13 µM [falling, partial curve, poor fit] |
| CC(NC(=O)COc1ccc(Br)cc1)C(=O)O (centres undefined) | -20.2% | 0.731 µM [falling, partial curve, poor fit] |  |
| Cc1cc(Br)c(Cl)cc1NC(=O)CN1C(=O)C2C3CC(c4ccccc4)C(C3)C2C1=O (centres undefined) | 5.55% | 0.092 µM [rising, full curve, poor fit] |  |
| Cc1ccc(-c2[nH]nc3c2C(c2ccccc2OC(=O)N2CCOCC2)C(C#N)=C(N)O3)cc1 (centres undefined) | 139% | 29.1 µM [rising, single point] | 20.6 µM [rising, single point] |
| Cc1cc(C)cc(NC(=O)COc2coc(CN3CCN(c4ccccc4)CC3)cc2=O)c1 | -26.9% |  |  |
| O=C(NC1CCCC1)c1ccc(Cl)c(S(=O)(=O)N2CCCCC2)c1 | 3.95% |  |  |

Reformatted with bars between the fields: entries from further up
Compound | cell number change | AC50 [1] | AC50 [2]
CCOc1ccc(NC(=O)CN(C)C(=O)c2cccnc2Sc2ccccc2Cl)cc1OCC |  |  | 0.103 µM [falling, full curve, poor fit]
O=C(COc1coc(CN2CCN(c3ccccc3F)CC2)cc1=O)Nc1ccccc1 | 7.25% | 20.6 µM [rising, partial curve] | 

Carrying on.

| Compound | cell number change | AC50 [1] | AC50 [2] |
| --- | --- | --- | --- |
| O=C1CCCc2nc3nc4ccccc4n3cc21 | -0.517% |  |  |
| COCCn1c(SCCCc2ccccc2)nc2c1c(=O)[nH]c(=O)n2C | -22.7% | 0.731 µM [rising, full curve, poor fit] |  |
| CCOc1ccc(N(CC(=O)NC2CC3CCC2C3)S(=O)(=O)c2ccc(C)cc2)cc1 (centres undefined) | -35.5% |  | 32.6 µM [falling, single point] |
| COc1ccccc1Oc1ccc(N2CC(C(=O)OCC(=O)c3ccccc3)CC2=O)cc1 (centres undefined) | 4.62% |  |  |
| O=C(O)Cc1ccccc1C(=O)O | -163% |  | 29.1 µM [falling, single point] |
| O=C(CCc1n[nH]c(=O)[nH]c1=O)N/N=C/c1ccco1 | -8.77% |  |  |
| O=c1c2ccccc2nc(/C=C/c2cc(Br)ccc2O)n1CCCO | -22.2% |  |  |
| Oc1ccc(N=Nc2ccccc2)o1 | -54.5% | 25.9 µM [falling, partial curve] | 23.1 µM [falling, single point] |
| O=C(NCc1ccc(F)cc1)C1CC(=O)N(Cc2ccco2)C1 (centres undefined) | -0.63% | 6.51 µM [rising, single point] |  |
| COc1ccccc1-n1ccnc1SCC(=O)NC(C)(C)C | -35.7% |  |  |
| O=C(CNC(=O)c1ccc(N2C(=O)c3ccccc3C2=O)cc1)OCC(=O)c1ccc(Cl)cc1 | 8.13% |  | 5.17 µM [falling, single point] |
| CCc1ccc(-c2nc(SCC(=O)NC3CCS(=O)(=O)C3)n[nH]2)cc1 (centres undefined) | -8.64% |  | 0.651 µM [falling, single point] |
| Cc1ccccc1-c1c(C)oc2cc(O)ccc2c1=O | -10.5% |  |  |
| CCOc1cc(/C=C2\C(=O)ON=C2c2ccccc2)cc(Br)c1O | -21.7% | 16.4 µM [falling, single point] |  |
| O=C(NCc1nnnn1-c1ccc(F)c(F)c1)c1ccc2c(c1)OCO2 |  | 6.51 µM [rising, single point] |  |
| COc1cccc(C(=O)NC(C)C(c2cccs2)N2CCOCC2)c1 (centres undefined) | 4.25% |  |  |
| Cc1cccc(Nc2nc(N3CCOCC3)nc(N3CCOCC3)n2)c1 | -21.4% |  |  |
| Cn1nc(-c2ccc(Cl)cc2)c2cc(C(=O)N3CCN(c4ccccc4)CC3)sc21 | -14.7% | 0.164 µM [falling, full curve] |  |
| CC1CCCCC1NC(=O)c1ccc(S(=O)(=O)NCc2ccco2)cc1 (centres undefined) |  | 13 µM [falling, partial curve, poor fit] |  |
| Cc1cc(C)c(C(=O)COC(=O)[C@H](C)Nc2ccc(C(F)(F)F)cc2[N+](=O)[O-])c(C)c1 | -2.56% | 16.4 µM [falling, single point] |  |
